Assay results: patent EP3597653A1, “CYCLIC INHIBITORS OF HEPATITIS B VIRUS” (IRBM S.P.A., priority 2018, dated 2020)
At least one read-out could not be matched to a standard name with certainty.

Test system: HBV
Assay: HBV inhibition assay in HepAD38 cells (extracellular HBV DNA by direct qPCR)
Format: cell-based
Conditions: concentration not given, 96 hours
Source text: HepAD38 cell line (Ladner et al., Antimicrob Agents Chemother, 1997, 41, 1715-20) was used for HBV inhibition assays. HepAD38 is a subclone, derived from Hepatoblastoma cell line HepG2 (ATCC® Number: HB-8065™), that expresses HBV genome under the control of a tetracycline-responsive promoter in a TET-OFF system: addition of tetracycline suppresses HBV replication, while its removal switches on the process allowing HBV viral particles release in the cell supernatant. HepAD38 cell line is maintained in DMEM/F12, supplemented with 10% of fetal bovine serum, 1% of glutamine, 1% of penicillin/streptomycin, 0.4 mg/ml G418 and 0,3 ug/ml tetracycline. […]
HBV inhibition activity in vitro was performed in 96 multiwell plates. […] From the dose-response curves, half maximal effective concentration (EC50) can be calculated (see also below). […]
Plates are then incubated 96 hours at 37°C and then subjected to cell viability assay in order to define compounds cytotoxicity and to extracellular HBV quantification in order to evaluate antiviral activity of compounds. Cytotoxicity is assessed by a commercial fluorescence assay that measures the metabolic activity of cells, directly related to cell viability (Cell Titer Blue, Promega). Anti-HBV activity was evaluated by quantification of extracellular HBV DNA with direct qPCR. […]

O=C(Nc1cc(F)c(F)c(F)c1)c1ccc2c(c1)S(=O)(=O)NCCO2 [Example E96, N-(3,4,5-trifluorophenyl)-3,4-dihydro-2H-benzo[b][1,4,5]oxathiazepine-8-carboxamide 1,1-dioxide]
Anti HBV Activity (conc µM): B (HBV inhibition less than 50% at the concentration indicated in the table)
